Test results reported in PubChem BioAssay AID1307 (SRMLSC, 2008).
The whole screen tested about 1,200 compounds, of which fewer than 10 were called active.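 How the source made its calls: active means inhibition reaching a set limit at one or more tested concentrations; inactive means inhibition under that limit at every dose.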 This is one part of the list. Potency and affinity values are given separately.

test: yeast RAM network inhibitors, dose response, S. cerevisiae (AID 1307);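 further: 0% = DMSO vehicle wells and 100% = 10 µM 1-NA-PP1 control; higher inhibition means more yeast growth since RAM block rescues cells from 5-FOA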; conditions: S. cerevisiae RAM network URA3 reporter, 5-FOA growth OD615, active compounds read high, yeast express analog-sensitive mutant Cbk1 kinase; at 100 µM unless noted

Max inhibition, inactive:
COc1cc(CC(NC(C)=O)C(=O)NC2CCN(c3c(Cc4ccccc4)c(C)nc4ncnn34)CC2)cc(OC)c1 (configuration not stated) 3.02% [at 25 µM]
CCc1c(C#N)c(SCc2c(C)noc2C)nc2c1C(=O)CC(C)(C)C2 7.41% [at 0.196 µM]
CCOC(=O)c1cc(C#N)c(Oc2cccc(C(F)(F)F)c2)nc1-c1ccccc1 2.36%
CC(CCc1ccco1)NC(=O)c1cccc2c1C(=O)N(C1CCCCC1)C2 (configuration not stated) 1.69% [at 12.5 µM]
COc1ccccc1N(C)S(=O)(=O)c1ccc(C(=O)OCC(=O)NCCC2=CCCCC2)cc1 3.89% [at 50 µM]
CC1CCCCN1S(=O)(=O)c1ccc(S(=O)(=O)N(Cc2ccccc2)Cc2ccco2)cc1 (configuration not stated) 3.06%
C=CCSc1nc(-c2ccc(OC)cc2)c(C#N)c(=O)n1CC=C 2.69%
c1ccc2cc(Sc3ncnc4c3oc3ccccc34)ccc2c1 17.3%
COc1ccc(-c2ccc(-c3noc(C4CCCCC4)n3)c(OC)n2)cc1 3.89% [at 50 µM]
Cc1ccc(NS(=O)(=O)c2ccc(C3CCCCC3)cc2)cc1 7.85%
CCCSC1=N/C(=C/c2ccsc2)C(=O)N1c1ccccc1 4.13%
CCOc1ccc(/C=C2/SC(=S)N(C(C(=O)O)c3ccccc3)C2=O)cc1OCC (configuration not stated) 3.65%
CCOC(=O)C1=C(c2ccccc2)N=c2s/c(=C\c3cc(OC)c(OC)c(OC)c3)c(=O)n2C1c1cccs1 (configuration not stated) 14.2%
O=C(Nc1ccc(Cl)c([N+](=O)[O-])c1)C(Sc1ccccc1)c1ccccc1 (configuration not stated) 1.17% [at 0.782 µM]
Cc1ccccc1N/C(SCc1ccc(Cl)cc1)=C(/C#N)C(=O)NCc1ccco1 1.63% [at 25 µM]
COc1cccc(N/C(SCc2ccccc2Cl)=C(/C#N)C(=O)NCc2cccs2)c1 2.47%
COc1cccc(-c2cc(C(F)(F)F)nc(N3CCN(c4ccccc4)CC3)n2)c1 3.29%
Cc1ccc(NC(=O)COc2ccc(-n3ccnc3)cc2)cc1Cl 1.34% [at 0.196 µM]
CCSC1=N/C(=C/c2ccsc2)C(=O)N1c1ccccc1 3.18%
O=C(/C=C/c1ccc(-c2ccccc2[N+](=O)[O-])o1)c1ccccc1 5.8% [at 25 µM]
Cc1ccc(-c2nc3cccnc3s2)cc1NS(=O)(=O)c1ccc2c(c1)OCCO2 8.35%
Cc1[nH]n(-c2ncc(-c3ccccc3)s2)c(=O)c1C(c1ccc(Cl)cc1)C(C#N)C#N (configuration not stated) 5.53%
O=C(O)CCCCn1c(SCc2ccccc2Cl)nc2ccsc2c1=O 2.82% [at 0.391 µM]
CC(C)CCOc1ncnc2c1sc1nc3c(cc12)CSC(C)(C)C3 3.77% [at 50 µM]
CCOc1ccc(/C=C/C(O)=C2/C(=O)N(C)C3(C)CC2c2ccccc2O3)cc1OC (configuration not stated) 2.07% [at 0.391 µM]
COc1ccccc1N(CC(O)COc1c(C)cc(C)cc1C)S(=O)(=O)c1ccccc1 (configuration not stated) 2.68% [at 0.391 µM]
C=CCNC(=O)c1ccc2c(c1)nnn2C 2.62% [at 25 µM]
CN(C)S(=O)(=O)N1CCC(c2ccc(F)cc2)C(COc2ccc3c(c2)OCO3)C1 (configuration not stated) 2.55% [at 50 µM]
CC(C)=CCCC1(C)C=Cc2c(ccc3c2[nH]c2cc(O)c(C)cc23)O1 (configuration not stated) 4.59%
CC(C)[C@H](NS(=O)(=O)c1ccccc1)C(=O)OCC(=O)Nc1ccccc1Sc1ccccc1 3.41%
CCCC1S/C(=N/N=C/c2ccc(OC)cc2)N(Cc2ccccc2)C1=O (configuration not stated) 3.04% [at 50 µM]
CCOc1ccccc1NC(=O)C(OC(=O)c1cc(C)oc1C)c1ccccc1 (configuration not stated) 4.82%
CCCOc1ccc(/C=C/C(=O)Nc2ccc([N+](=O)[O-])cc2)cc1 6.59%
O=C(c1cnc(-c2ccccc2)s1)c1ccc(Cl)cc1Cl 2.95%
O=C(COC(=O)CCCN1C(=O)c2cccc3cccc(c23)C1=O)Nc1cccc(C(F)(F)F)c1 1.89%
COCCNC(=O)C(c1ccc(F)cc1)N(C(=O)CCC(=O)Nc1nccs1)c1ccc(C)cc1 (configuration not stated) 2.04% [at 3.125 µM]
CCOC(=O)c1cc(C#N)c(Oc2ccccc2)nc1-c1ccccc1 4.47%
Cc1ccc(S(=O)(=O)n2nc(-c3ccc(Cl)cc3)nc2NCc2ccco2)cc1 2.04% [at 0.196 µM]
COc1ccc(OC)c(-c2cc(C(=O)N3CCc4ccccc4C3)no2)c1 3.18%
Cc1ccc(C)c(C(=O)COC(=O)CCCC(=O)Nc2cc(C(F)(F)F)ccc2Cl)c1 3.64% [at 50 µM]
Clc1ccc(-c2csc(Nc3ccccc3)[n+]2Cc2ccco2)c(Cl)c1 2.09% [at 1.563 µM]
O=C(c1ccc(Cl)cc1[N+](=O)[O-])N(Cc1ccccc1)Cc1ccccc1 1.93% [at 12.5 µM]
Cc1cccc(N(C)C(=S)Oc2ccc3ccccc3c2)c1 2.55% [at 50 µM]
CCN(CC)S(=O)(=O)c1ccc(N2CCOCC2)c(NC(=O)CCC2CCCCC2)c1 1.43% [at 6.25 µM]
C=CCn1c(SCC(=O)Nc2ccccc2C)nnc1-c1ccncc1 2.08%
Cc1ccc(SCCNC(=S)Nc2ccc(C)c(C)c2)cc1 4.41% [at 12.5 µM]
Cc1ccccc1OCC(=O)OCC(=O)c1ccc(OCc2ccccc2)cc1 4.85% [at 50 µM]
Cc1ccc2[nH]c(=O)cc(C(=O)OCC(=O)c3ccccc3)c2c1 6.61%
CCOC(=O)c1cnn(-c2nc(-c3ccc(C)cc3)cs2)c1C(F)(F)F 1.08% [at 6.25 µM]
Cc1cc(NC(=O)COC(=O)C(Nc2ccc(C(F)(F)F)cc2Cl)C(C)C)no1 (configuration not stated) 3.28% [at 12.5 µM]
O=C(COC(=O)c1ccc(-c2ccccc2)cc1)Nc1ccccc1-c1ccccc1 4.8% [at 50 µM]
OCCNc1nc(SCc2ccccc2)nc2sc3c(c12)CCC3 1.56% [at 3.125 µM]
Cc1cc(SC(C)C(=O)Nc2ncc(Cl)cc2Cl)nc2ccccc12 (configuration not stated) 2.9% [at 25 µM]
Cc1ccc(S(=O)(=O)N2CCC(=O)N(C(COCc3cccc(C(F)(F)F)c3)C(C)C)CC2)cc1 (configuration not stated) 2.65% [at 0.782 µM]
COc1cc(S(=O)(=O)Nc2ccccc2)ccc1N=Cc1c(C)[nH]n(-c2ccc(C)cc2)c1=O 4.25%
CCN(CC)c1ccc(C(=O)OCC(=O)Nc2ccccc2-c2ccccc2)cc1 3.81%
CCCSc1ccc(-c2nn(-c3ccccc3)cc2/C=C(/C#N)C(=O)NCCCOC)cc1 2.38% [at 25 µM]
CCc1nc(Nc2ccc3nccnc3c2)c2oc3ccccc3c2n1 13.3%
COC(=O)c1cc2c(ccn2-c2ccc(F)cc2)n1Cc1cccc(OC)c1 6.31% [at 50 µM]
O=C(CN(Cc1cccs1)C(=O)CSc1nnc(COc2ccccc2)o1)NC1CCCC1 3.76%
CCCCN1C(=O)C2(NNc3ccccc3O2)c2ccccc21 (configuration not stated) 4.85%
COc1cccc(N/C(SCc2ccccc2C)=C(/C#N)C(=O)NCc2cccs2)c1 3.71% [at 25 µM]
Cc1ccc(-c2noc(CSc3nnc(CCc4ccccc4)n3-c3ccccc3)n2)cc1 3.37% [at 25 µM]
Cc1nc(C)c(NC(=O)N2CCc3ccccc32)cc1NC(=O)N1CCc2ccccc21 4.06% [at 25 µM]
CCN(CC)S(=O)(=O)c1cccc(-c2nnc(SCc3nc4ccccc4s3)o2)c1 2.03% [at 3.125 µM]
Cc1ccccc1-c1nnn(CC(=O)Nc2ccc3c(c2)OCCO3)n1 4.6%
COC(=O)C/C=C/[C@@H](C)[C@@H](/C=N/OC[C@@H](C)[C@H](OCc1ccccc1)C(C)C)NS(=O)(=O)c1ccc(C)cc1 5.22% [at 50 µM]
CSc1nnc2c3ccccc3c3ccccc3c2n1 2.77%
COc1ccc(C(=O)/C=C/c2ccc(OC)c(COc3ccc(F)cc3)c2)cc1 5.41%
Cc1ccc(S(=O)(=O)N2CCC(=O)N(C(COCc3cccc(Cl)c3)Cc3ccccc3)CC2)cc1 (configuration not stated) 5.88% [at 50 µM]
Cn1nc(C(F)(F)F)c(/C=N/OC(=O)c2ccccc2Cl)c1SCc1ccc(Cl)cc1 2.09% [at 25 µM]
CCOC(=O)c1cc(C)sc1NC(=O)C(c1ccccc1)c1ccccc1 4.13% [setting not given]
C=CCNC(=S)N/N=C/c1ccc(N(CC)Cc2ccccc2)cc1 3.65%
COc1cc2c(cc1NC(=O)C(C)Sc1ccc(C)cc1)oc1ccccc12 (configuration not stated) 5.16% [at 50 µM]
Cc1ccccc1OCCNC(=O)c1ccccc1Sc1ccccc1C#N 3.84% [at 0.196 µM]
CCCNC(=O)OC[C@H]1O[C@H](CCO/N=C/[C@@H](NS(=O)(=O)c2ccc(C)cc2)[C@H](C)/C=C/CC(=O)OC)C=C[C@@H]1Oc1ccc(OC)cc1 4.41% [at 25 µM]
CC(C)c1ccc(CNC(=O)CSCC(=O)Nc2ccc3ccccc3c2)cc1 3.89% [at 50 µM]

Compounds from the list above that contain a nitro group on carbon (4):
Max inhibition, inactive:
O=C(Nc1ccc(Cl)c([N+](=O)[O-])c1)C(Sc1ccccc1)c1ccccc1 (configuration not stated) 1.17% [at 0.782 µM]
O=C(/C=C/c1ccc(-c2ccccc2[N+](=O)[O-])o1)c1ccccc1 5.8% [at 25 µM]
CCCOc1ccc(/C=C/C(=O)Nc2ccc([N+](=O)[O-])cc2)cc1 6.59%
O=C(c1ccc(Cl)cc1[N+](=O)[O-])N(Cc1ccccc1)Cc1ccccc1 1.93% [at 12.5 µM]

Random excerpt: two compounds from above
Max inhibition, inactive:
CCCSC1=N/C(=C/c2ccsc2)C(=O)N1c1ccccc1 4.13%
CCOC(=O)C1=C(c2ccccc2)N=c2s/c(=C\c3cc(OC)c(OC)c(OC)c3)c(=O)n2C1c1cccs1 (configuration not stated) 14.2%
